{
  "sequences": {"note": "Amino acid sequences for entries named in this document (tags omitted). A change or cut given only in a name is not applied to a line headed by its entry. Residues count along the entry.", "UniProt Q8NHJ6": "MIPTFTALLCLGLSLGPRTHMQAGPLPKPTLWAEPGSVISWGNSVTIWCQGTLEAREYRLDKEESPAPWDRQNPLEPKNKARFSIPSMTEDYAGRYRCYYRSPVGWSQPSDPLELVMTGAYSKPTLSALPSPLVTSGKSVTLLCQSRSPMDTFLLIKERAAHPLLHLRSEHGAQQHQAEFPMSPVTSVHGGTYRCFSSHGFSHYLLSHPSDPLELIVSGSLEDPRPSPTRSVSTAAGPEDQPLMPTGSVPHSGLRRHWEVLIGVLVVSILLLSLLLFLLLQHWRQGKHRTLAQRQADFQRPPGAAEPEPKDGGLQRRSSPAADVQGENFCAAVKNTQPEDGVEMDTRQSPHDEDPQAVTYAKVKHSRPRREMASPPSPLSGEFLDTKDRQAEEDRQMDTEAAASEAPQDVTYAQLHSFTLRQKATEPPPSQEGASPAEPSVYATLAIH", "UniProt Q8N423, residues 22-458": "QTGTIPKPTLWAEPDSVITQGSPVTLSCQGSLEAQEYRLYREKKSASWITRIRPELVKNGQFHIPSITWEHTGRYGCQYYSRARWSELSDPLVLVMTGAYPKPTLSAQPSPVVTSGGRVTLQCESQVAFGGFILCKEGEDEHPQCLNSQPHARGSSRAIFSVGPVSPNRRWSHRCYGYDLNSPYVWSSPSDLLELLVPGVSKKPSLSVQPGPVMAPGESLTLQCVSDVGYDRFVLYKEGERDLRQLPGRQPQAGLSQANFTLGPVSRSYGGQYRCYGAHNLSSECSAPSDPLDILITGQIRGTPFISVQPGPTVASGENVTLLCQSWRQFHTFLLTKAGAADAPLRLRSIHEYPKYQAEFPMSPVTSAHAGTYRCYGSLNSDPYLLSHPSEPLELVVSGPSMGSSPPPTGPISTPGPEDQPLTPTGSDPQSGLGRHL"},
  "source": "patent US20180086829A1",
  "key": {"human LILRB4 (human)": {"target": "human LILRB4 (human) (UniProt Q8NHJ6)", "assay": "ELISA"}, "LILRB2 (human) [1]": {"target": "LILRB2 (human) (UniProt Q8N423)", "assay": "binding model of FIG. 74"}, "LILRB2 (human) [2]": {"target": "LILRB2 (human) (UniProt Q8N423)", "assay": "cross-reactivity ELISA (FIG. 46)"}},
  "note": "No constants are given. Whether binding was seen depends on the method and setting. Some entries that bind do so weakly or less than the wild type.",
  "data": [
    {"binder": "anti-LILRB4 rabbit monoclonal antibody #161-2 (antibody, V domains shown) VH: QSVKESGGRLVTPGTPLTLTCTVSGIDLSVYLMSWVRHSPGKGLEYIGFINSAGITAYATWAKGRFIISKTSTTVDLKVTSPTTEDTATYFCARNWIRLDLWGQGTLVTISS VL: TQTPASVSAAVGGTVTISCQSSETIYKNYLSWFQQKPGQPPKLLIYESSKLASGVPSRFSGSGSGTQFTLTISDVQCDDAATYYCLGGYTDGRDTIFGGGTEVEIK", "values": [
      {"measurement": "binding", "setting": "human LILRB4 (human)", "result": "binds"}
    ]},
    {"binder": "anti-LILRB4 rabbit monoclonal antibody #216-2 (antibody, V domains shown) VH: EQSLKESGGRLVTPGTPLTLTCTVSGIDLSSYAMTWVRQVPGKGLEYIGFINIVGIAGYATWAKGRFTISKTSTTVDLKVTSPTTEDTATYFCARNWIRLDLWGQGTLVTVSS VL: ELVMTQTPASVSAAVGGTVTISCQSSESLYKKNYLSWFQQKPGQPPKLLIYEASKLASGVPSRFSGSGSGTQFTLTISDVQCDDAASYYCLGDYTNGRDTTFGGGTEVEIK", "values": [
      {"measurement": "binding", "setting": "LILRB2 (human) [1]", "result": "binds"},
      {"measurement": "binding", "setting": "LILRB2 (human) [2]", "result": "binds"}
    ]},
    {"binder": "anti-LILRB4 rabbit monoclonal antibody #139 (antibody, V domains shown) VH: EQSLEESGGRLVTPGTPLTLTCTVSGFSLNSYAMAWVRQAPGKGLEWIGIIGLSTMTYYASWVNGRFTISKTSTTVDLKMTSLTTEDTATYFCVRNDVYWAFNLWGQGTLVTVSS VL: ELDLTQTPSSVSAGVGGTVSISCQSSESVVNNHALSWYQQKPGQPPKLLIYKASTLASGVPSRFSGSGSGAQFTLTISGVQCDDAATYYCQGGFYSGISDYPFGGGTEVEIK", "values": [
      {"measurement": "binding", "setting": "LILRB2 (human) [2]", "result": "binds"}
    ]}
  ]
}
